No constants are given. Whether binding was seen depends on the method and setting. In cells and extracts the contact can be indirect. Binding can be weak; no strength is given.
Molecular target: GFP-G3BP1 10KR (UniProt Q13283)
Assay: co-IP

Sequences of proteins named here, by UniProt entry; tags and fusion partners are left off. A change or cut given only in a name is not applied to a line headed by its entry.
UniProt Q13283: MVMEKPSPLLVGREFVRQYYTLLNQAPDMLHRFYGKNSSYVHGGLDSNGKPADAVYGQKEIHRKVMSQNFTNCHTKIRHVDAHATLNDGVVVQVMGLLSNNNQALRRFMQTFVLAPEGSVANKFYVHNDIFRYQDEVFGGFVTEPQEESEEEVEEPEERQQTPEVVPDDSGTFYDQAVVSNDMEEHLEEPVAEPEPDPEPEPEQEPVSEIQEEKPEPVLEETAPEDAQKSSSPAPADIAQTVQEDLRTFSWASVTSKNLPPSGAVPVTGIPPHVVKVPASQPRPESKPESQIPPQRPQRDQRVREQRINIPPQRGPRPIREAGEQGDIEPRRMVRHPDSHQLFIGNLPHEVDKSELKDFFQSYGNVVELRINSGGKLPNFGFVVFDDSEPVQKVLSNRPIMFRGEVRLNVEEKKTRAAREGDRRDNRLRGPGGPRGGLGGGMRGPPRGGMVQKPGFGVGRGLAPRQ

With “valosin-containing protein (VCP), endogenous (from UniProt P55072 1-806) (enzyme)” the binding was “binds weakly”.

Reference: publication doi:10.1101/2021.04.22.440930
